# Results are given in words; binding and its absence hold for the method and conditions named. Binding seen in cells or lysates may run through a third protein. Here binding means that the protein was enriched with, or labelled near, the bait; the list need not be complete.
# By UniProt entry, the sequences of proteins in these tests, tags left out.
# UniProt Q2HR75: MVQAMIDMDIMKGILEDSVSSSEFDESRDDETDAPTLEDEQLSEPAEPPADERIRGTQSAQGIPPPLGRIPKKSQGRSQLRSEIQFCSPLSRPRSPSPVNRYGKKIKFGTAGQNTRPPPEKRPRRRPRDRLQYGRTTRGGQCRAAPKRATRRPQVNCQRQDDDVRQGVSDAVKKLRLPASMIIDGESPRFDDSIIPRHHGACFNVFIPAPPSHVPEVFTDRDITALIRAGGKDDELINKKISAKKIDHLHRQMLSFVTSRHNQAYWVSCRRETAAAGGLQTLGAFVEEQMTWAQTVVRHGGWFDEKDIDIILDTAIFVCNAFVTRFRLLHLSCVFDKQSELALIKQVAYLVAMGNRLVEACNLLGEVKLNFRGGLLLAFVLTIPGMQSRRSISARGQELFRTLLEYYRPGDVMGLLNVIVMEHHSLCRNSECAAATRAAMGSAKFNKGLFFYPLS
# UniProt Q13123: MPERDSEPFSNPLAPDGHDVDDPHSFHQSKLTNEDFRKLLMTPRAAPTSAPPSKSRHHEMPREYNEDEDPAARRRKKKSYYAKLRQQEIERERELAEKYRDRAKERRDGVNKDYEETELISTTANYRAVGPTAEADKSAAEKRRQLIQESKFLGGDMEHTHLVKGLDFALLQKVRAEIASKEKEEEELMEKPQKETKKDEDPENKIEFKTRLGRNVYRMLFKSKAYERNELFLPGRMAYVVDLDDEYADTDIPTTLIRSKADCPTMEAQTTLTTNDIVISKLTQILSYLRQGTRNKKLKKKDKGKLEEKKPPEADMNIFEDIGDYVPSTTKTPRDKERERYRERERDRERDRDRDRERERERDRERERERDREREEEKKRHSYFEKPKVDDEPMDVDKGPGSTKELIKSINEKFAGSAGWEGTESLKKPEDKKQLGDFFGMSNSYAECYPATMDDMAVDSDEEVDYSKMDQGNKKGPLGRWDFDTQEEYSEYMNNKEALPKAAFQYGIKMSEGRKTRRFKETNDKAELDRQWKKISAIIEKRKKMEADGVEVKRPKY
# UniProt Q9H361: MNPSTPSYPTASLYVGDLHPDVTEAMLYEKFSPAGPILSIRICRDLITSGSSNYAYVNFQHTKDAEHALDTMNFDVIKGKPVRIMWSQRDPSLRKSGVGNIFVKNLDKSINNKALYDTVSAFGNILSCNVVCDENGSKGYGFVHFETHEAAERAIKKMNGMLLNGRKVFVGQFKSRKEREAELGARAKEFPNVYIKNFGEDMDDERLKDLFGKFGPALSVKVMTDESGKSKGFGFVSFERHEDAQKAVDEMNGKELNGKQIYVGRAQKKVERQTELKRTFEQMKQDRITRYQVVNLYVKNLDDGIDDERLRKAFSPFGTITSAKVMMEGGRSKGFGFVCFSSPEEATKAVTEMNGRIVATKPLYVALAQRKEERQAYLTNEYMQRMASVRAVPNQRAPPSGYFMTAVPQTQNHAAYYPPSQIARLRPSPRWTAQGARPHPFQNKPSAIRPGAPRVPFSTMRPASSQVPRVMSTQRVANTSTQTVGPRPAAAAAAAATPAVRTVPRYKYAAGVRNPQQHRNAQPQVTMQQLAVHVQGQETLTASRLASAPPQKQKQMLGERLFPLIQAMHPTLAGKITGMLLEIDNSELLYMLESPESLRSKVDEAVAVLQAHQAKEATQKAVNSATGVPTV
# Molecular target: KSHV ORF57 N-terminally fused to mini-TurboID (Kaposi sarcoma-associated herpesvirus (KSHV), BAC16) (UniProt Q2HR75)
# Test: proximity labelling; mTID-57 PAN WT and PAN MRE mutant iSLK cells reactivated (doxycycline, TPA), biotin; biotinylated proteins identified by mass spectrometry; enrichment compared between PAN RNA WT and MRE mutant
row,Substance,binding
1,IK (from UniProt Q13123 1-557),binds
2,PABPC3 (from UniProt Q9H361 1-631),binds

# — paper PMC9153692
